These are yes or no findings as the source states them, for the method shown. Binding calls can cover weak binding; strength is not graded here. Where a sequence is shown, tags or fusion partners need not be part of it.
target: T1, Chk1 (yeast two-hybrid fusion) (S. cerevisiae) (UniProt P38147); test: two-hybrid; Clontech Matchmaker Gold system; interaction read by white colony colour, resistance to Aureobasidin A and blue colour on X-alpha-gal (Figure 5A, six clones each); read-out of Figures 6A and S6C-E not told
T1 sequence: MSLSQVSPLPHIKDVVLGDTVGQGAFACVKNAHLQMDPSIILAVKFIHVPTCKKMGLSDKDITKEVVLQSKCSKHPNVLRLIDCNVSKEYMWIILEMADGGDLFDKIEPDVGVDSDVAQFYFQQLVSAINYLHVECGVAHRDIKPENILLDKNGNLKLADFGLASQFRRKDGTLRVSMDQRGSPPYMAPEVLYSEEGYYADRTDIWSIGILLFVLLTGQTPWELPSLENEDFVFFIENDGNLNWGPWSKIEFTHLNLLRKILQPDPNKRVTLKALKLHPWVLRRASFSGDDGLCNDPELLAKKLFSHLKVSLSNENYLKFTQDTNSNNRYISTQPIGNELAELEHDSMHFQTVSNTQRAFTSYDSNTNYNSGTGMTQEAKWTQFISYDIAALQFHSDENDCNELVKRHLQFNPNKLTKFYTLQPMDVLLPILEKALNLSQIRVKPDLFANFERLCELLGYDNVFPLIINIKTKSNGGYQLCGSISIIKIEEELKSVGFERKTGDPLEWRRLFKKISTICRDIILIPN

| binding | Substance |
| --- | --- |
| binds | Rad9 CAD^CDK1-9A+6D7D (yeast two-hybrid fusion) (S. cerevisiae) (domain or fragment) |
| binds | Rad9 CAD^CDK1-9A+6D (yeast two-hybrid fusion) (S. cerevisiae) (domain or fragment) |
| binds | Rad9 CAD^CDK1-9A+6T7T (yeast two-hybrid fusion) (S. cerevisiae) (domain or fragment) |
| binds | Rad9 CAD^CDK1-9A+6T (yeast two-hybrid fusion) (S. cerevisiae) (domain or fragment) |
| binds | Rad9 CAD^CDK1-9A+7D (yeast two-hybrid fusion) (S. cerevisiae) (domain or fragment) |
| binds | Rad9 CAD^CDK1-9A+7T (yeast two-hybrid fusion) (S. cerevisiae) (domain or fragment) |
